Binding data for five substances are collected here from article PMC8040471.

The chains behind the UniProt entries cited, without tags or fusion partners. Where a name states a change or a piece, a line headed by the entry shows the natural chain unless it says otherwise.
UniProt O95831: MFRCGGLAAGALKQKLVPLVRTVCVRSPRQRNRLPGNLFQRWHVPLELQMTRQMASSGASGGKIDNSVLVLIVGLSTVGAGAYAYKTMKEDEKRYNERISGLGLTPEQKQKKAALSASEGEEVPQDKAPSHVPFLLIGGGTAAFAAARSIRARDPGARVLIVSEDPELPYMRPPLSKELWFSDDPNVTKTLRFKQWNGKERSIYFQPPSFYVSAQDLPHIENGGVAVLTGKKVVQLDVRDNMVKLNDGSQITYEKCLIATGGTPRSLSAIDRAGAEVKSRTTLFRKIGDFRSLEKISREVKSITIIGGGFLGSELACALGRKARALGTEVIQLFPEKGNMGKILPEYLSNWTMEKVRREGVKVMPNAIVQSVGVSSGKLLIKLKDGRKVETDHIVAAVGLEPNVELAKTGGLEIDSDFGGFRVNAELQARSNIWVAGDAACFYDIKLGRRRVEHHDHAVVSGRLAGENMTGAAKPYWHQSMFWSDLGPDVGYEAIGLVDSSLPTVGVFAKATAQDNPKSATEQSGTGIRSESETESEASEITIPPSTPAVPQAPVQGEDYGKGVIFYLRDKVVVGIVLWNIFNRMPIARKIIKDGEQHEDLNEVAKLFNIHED
UniProt O00629: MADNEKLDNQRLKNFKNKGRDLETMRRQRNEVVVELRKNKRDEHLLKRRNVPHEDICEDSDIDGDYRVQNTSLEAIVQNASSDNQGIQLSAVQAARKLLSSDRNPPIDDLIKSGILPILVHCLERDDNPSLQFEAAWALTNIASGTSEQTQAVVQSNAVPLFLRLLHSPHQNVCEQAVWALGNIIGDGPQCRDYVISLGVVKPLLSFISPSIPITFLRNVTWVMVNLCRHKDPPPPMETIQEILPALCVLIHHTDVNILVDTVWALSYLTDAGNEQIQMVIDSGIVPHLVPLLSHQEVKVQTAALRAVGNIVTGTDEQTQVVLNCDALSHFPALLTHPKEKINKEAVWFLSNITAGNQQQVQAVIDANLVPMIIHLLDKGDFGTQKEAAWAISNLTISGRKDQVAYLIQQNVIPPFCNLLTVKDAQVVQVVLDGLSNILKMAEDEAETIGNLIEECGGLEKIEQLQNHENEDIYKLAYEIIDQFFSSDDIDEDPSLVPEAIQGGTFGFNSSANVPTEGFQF
UniProt Q14974: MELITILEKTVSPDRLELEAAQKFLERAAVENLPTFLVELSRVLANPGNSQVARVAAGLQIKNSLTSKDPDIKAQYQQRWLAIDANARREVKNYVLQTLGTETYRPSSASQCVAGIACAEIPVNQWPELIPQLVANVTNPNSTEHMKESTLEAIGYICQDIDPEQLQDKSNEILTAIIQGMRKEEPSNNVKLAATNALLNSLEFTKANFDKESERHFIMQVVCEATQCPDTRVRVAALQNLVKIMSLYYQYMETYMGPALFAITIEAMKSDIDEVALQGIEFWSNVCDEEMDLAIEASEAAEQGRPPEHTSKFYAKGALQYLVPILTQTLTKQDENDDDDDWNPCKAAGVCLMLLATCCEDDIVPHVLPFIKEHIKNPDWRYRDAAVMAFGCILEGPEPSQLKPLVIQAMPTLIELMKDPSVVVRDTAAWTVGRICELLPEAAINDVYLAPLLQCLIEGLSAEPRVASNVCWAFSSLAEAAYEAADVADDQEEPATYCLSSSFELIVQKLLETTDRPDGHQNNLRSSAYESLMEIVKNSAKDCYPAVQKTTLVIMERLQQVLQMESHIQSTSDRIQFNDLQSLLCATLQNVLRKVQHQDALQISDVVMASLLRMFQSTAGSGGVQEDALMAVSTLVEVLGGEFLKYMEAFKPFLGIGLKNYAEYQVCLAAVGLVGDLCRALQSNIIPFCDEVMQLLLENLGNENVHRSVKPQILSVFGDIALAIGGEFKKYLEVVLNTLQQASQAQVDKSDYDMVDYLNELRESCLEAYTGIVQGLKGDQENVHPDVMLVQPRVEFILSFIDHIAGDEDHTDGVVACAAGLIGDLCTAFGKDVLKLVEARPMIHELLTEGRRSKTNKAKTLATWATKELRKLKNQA
UniProt Q9P286: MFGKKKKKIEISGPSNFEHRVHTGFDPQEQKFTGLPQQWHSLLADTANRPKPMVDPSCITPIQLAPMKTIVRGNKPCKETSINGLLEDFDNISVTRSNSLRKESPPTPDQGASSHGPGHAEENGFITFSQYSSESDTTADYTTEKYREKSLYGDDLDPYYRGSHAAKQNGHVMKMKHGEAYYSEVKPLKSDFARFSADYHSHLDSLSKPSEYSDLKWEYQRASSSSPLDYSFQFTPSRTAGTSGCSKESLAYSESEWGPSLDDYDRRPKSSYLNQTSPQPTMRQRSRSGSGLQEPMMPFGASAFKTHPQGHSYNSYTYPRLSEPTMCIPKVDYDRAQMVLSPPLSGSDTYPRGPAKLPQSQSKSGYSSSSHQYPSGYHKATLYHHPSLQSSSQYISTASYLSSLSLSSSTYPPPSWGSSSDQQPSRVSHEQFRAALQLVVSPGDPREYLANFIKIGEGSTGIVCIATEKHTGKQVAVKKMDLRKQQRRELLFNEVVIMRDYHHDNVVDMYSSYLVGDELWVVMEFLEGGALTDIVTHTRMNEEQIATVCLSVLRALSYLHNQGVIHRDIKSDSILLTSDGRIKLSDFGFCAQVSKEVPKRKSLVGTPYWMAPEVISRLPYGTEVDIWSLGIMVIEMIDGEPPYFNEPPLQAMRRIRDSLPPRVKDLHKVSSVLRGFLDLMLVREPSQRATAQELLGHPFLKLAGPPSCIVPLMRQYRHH

These are yes or no findings as the source states them, for the method shown. In cells and extracts the contact can be indirect. Binding calls can cover weak binding; strength is not graded here.

The target in assay [1] is Flag-AIF T281A (human) (UniProt O95831). Briefly: co-IP; lysates of cells with Flag-AIF WT or T281A immunoprecipitated with anti-Flag antibody, immunoblotted with indicated antibodies. A general note: In western blotting, separated proteins are transferred to a membrane and probed.
The target in assay [2] is GST-AIF (WT) (human) (UniProt O95831). Briefly: pull-down; GST pull-down in vitro with GST-AIF or GST-truncated AIF as bait; method as in ref. 22.
In assay [3] the target is Apoptosis-inducing factor (AIF), endogenous (human (endogenous in BT474 and T47D)) (UniProt O95831). Nature of the assay: co-IP; endogenous proteins; BT474 and T47D lysates immunoprecipitated with anti-PAK5, anti-AIF or IgG, western blot.

Turning to “GST-importin α3 (from UniProt O00629 1-521)”, the binding entry in assay [1] was “binds”.

Turning to “GST-importin β1 (from UniProt Q14974 1-876)”, the binding result in assay [1] was “binds”.

Turning to “PAK5 used in the GST pull-down assays (from UniProt Q9P286 1-719) (enzyme)”, the binding result in assay [2] is “binds”.

For “PAK5, overexpressed in cells (from UniProt Q9P286 1-719) (enzyme)”, the binding result in assay [1] was “binds”.

As to “p21 activated kinase 5 (PAK5), endogenous (from UniProt Q9P286 1-719) (enzyme)”, in assay [3], the binding entry is “binds”.
